Reference: patent publication US20060110474A1, “Rubrofusarin glycoside-containing composition” (Suntory Limited, priority 2002, published 2006)
At least one compound was matched to its structure with a doubt left.

System: human hepatoma HepG2 cells
Test: Intracellular glutathione level of HepG2 cells (monochlorobimane fluorescence)
Format: cell-based
Procedure: The activity to increase intracellular glutathione level was determined by use of human hepatoma HepG2 cells. More specifically, HepG2 cells were cultured in RPMI1640 medium and added to a 96-well microplate at a density of 2.5×10^4 cells (100 μl) per well. After the HepG2 cells settled on the wall, 25 μl of each of the aforementioned samples was added and the mixture was cultured in a CO2 incubator for 48 hours. Thereafter, a culture solution was removed and the cells were washed once with phosphate buffered saline (PBS), 25 μl of a PBS solution containing 0.25 mM monochlorobimane was added and the mixture was allowed to stand in the CO2 incubator (37° C.) for 45 minutes. […] The fluorescent intensity of the fluorescent substance produced by the reaction between Monochlorobimane and glutathione was measured at 355 nm/460 nm to observe a change in intracellular glutathione content. […]
Using human hepatoma HepG2 cells, dose dependency of the effect of rubrofusarin glycoside upon intracellular glutathione level was investigated. […] After culturing for an additional 48 hours, the intracellular glutathione level was measured to be compared with that of the cells containing no test-compound or that of the cells containing comparative compound, β-naphthoflavone (purchased from Nacalai-tesque) or silibinin (purchased from Sigma Chemical). […]

COc1cc(C2Oc3cc([C@H]4Oc5cc(O)cc(O)c5C(=O)[C@@H]4O)ccc3OC2CO)ccc1O (some centres unmarked) [silibinin, reference compound]
glutathione increasing activity, dose dependency (HepG2, 48 hours, final concentration 0 to 20 μM in terms of rubrofusarin gentiobioside, FIG. 2): not observed
intracellular glutathione level, time course (HepG2, 0, 6, 12, 24, 48 hours, 1.25, 2.5, 5.0 μM in terms of rubrofusarin gentiobioside, relative to negative control = 100%, FIG. 1): only a small increase
